Reference: PubChem BioAssay AID504764 (Drosophila RNAi Screening Center, 2011)
Purpose: 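Genome-wide screen for regulators of Notch-driven gene expression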 (primary screen). Cell system: Drosophila Kc167 cells. Knock-down reagent: long dsRNA against Drosophila genes. Duration: about 5 days (4 days dsRNA, then 24 h after transfection). Conditions: transfection of constitutively active membrane-tethered Notch lacking the extracellular domain, read 24 h later. Measured: 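Firefly luciferase from an E(spl)m3 reporter with active Notch, plus control-promoter and uninduced reporter wells for normalisation; unnormalised counts, duplicate wells a and b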. Reading the numbers: induced reporter light, run 1, well a and induced reporter light, run 1, well b: higher = more light from the Notch target reporter with active Notch; control promoter light, run 1, well a and control promoter light, run 1, well b: higher = more light from the viral control promoter (cell number, transfection, viability); uninduced reporter light, run 1, well a: higher = more light from the Notch target reporter without active Notch. Hit rule: 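Wells with low control signal or poorly matching duplicates excluded; duplicates averaged; per source plate, z beyond ±2 for induced/control log2 ratio or beyond ±1.8 for induced/uninduced marks a hit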. Calls: active = modifier hit (raised or lowered Notch signal); inactive = not a hit.
In all, the deposit lists about 22,000 reagents; below is a random part of those that have a named target and a result. Over the whole deposit, 403 (1.9%) got an active call. 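Unnormalised raw counts per well; ratio z-scores behind the hit calls and whether each hit raises or lowers signal are not deposited.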 A number with no mark means an inactive call. The numbers tell different reagents against one gene apart. A plus sign joins genes that one reagent is predicted to hit. Not given: the amount of reagent.

gene,dsRNA no.,"induced reporter light, run 1, well a","induced reporter light, run 1, well b","control promoter light, run 1, well a","control promoter light, run 1, well b","uninduced reporter light, run 1, well a"
CG32815,1,1.01e5,1.24e5,1.80e5,1.84e5,7620
grh (grainy head),1,1.59e5,1.46e5,1.97e5,2.21e5,13692
grh (grainy head),2,1.14e5,1.02e5,1.93e5,1.31e5,8878
grh (grainy head),3,74550,86420,1.64e5,1.82e5,7000
grh (grainy head),4,1.13e5,1.15e5,96170,1.21e5,8142
ppk10 (pickpocket 10),1,1.55e5,1.49e5,1.70e5,1.52e5,12440
Nha1 (Na[+]/H[+] hydrogen antiporter 1),1,1.64e5,1.80e5,1.97e5,2.06e5,15435
CG30127 (retired record),1,79710,1.04e5,1.50e5,1.26e5,7355
CG30127 (retired record),2,96690,1.01e5,1.75e5,1.41e5,10225
VAChT (Vesicular acetylcholine transporter),1,1.16e5,95070,1.34e5,1.24e5,13345
VAChT (Vesicular acetylcholine transporter),2,1.43e5,1.56e5,1.41e5,1.50e5,10692
Dph1 (Diphthamide biosynthesis 1),1,98085,1.10e5,75440,26870,8720
Ctf4 (Chromosome transmission fidelity 4),1,1.35e5,1.23e5,1.12e5,1.19e5,10820
WASp,1,1.24e5,1.25e5,1.75e5,1.71e5,11355
Itgbn (Integrin betanu subunit),1,37705,35305,59535,44270,3265
CG34316,1,1.12e5,99120,1.01e5,1.28e5,9255
wake (wide awake),1,2.01e5,1.89e5,2.19e5,2.20e5,17110
wake (wide awake),2,1.76e5,1.61e5,1.68e5,1.60e5,11810
CG17841,1,1.81e5,1.55e5,2.09e5,1.99e5,19035
CycJ (Cyclin J),1,1.31e5,1.50e5,1.06e5,41630,9975
CG11755,1,96700,1.13e5,1.04e5,92070,6955
CG18540,1,48020,37135,44760,39400,3565
Sil1 (Sil1 nucleotide exchange factor),1,1170,2610,3090,3680,238
CG14107,1,1.14e5,1.25e5,1.77e5,1.53e5,6070
CG5157,1,2.03e5,1.85e5,2.53e5,1.94e5,8970
CG13653,1,1.37e5,1.56e5,2.42e5,1.87e5,12420
Atg8b (Autophagy-related 8b),1,2.29e5,1.87e5,2.15e5,2.29e5,13982
CG5892,1,1.96e5,1.85e5,1.87e5,1.93e5,14965
CG17118,1,1.25e5,1.29e5,76185,96635,20430
rst (roughest),1,58585,68030,87325,96020,5465
rst (roughest),2,1.20e5,1.11e5,1.92e5,1.82e5,8230
CG32260,1,1.44e5,1.41e5,1.58e5,1.61e5,12425
RhoBTB (Rho-related BTB domain containing),1,78775,82260,63950,85360,6785
cathD (cathepsin D),1,2.20e5,2.59e5,3.12e5,2.70e5,22820
sano (serrano),1,97535,95175,1.66e5,2.18e5,8720
CG6345,1,77030,77670,71955,64545,4035
Neu2 (Neuroectoderm-expressed 2),1,1.10e5,1.07e5,83495,65125,6685
Gpdh3 (Glycerol-3-phosphate dehydrogenase 3),1,67160,60795,86940,68030,8640
Gpdh3 (Glycerol-3-phosphate dehydrogenase 3),2,1.76e5,1.63e5,1.67e5,1.51e5,11995
CG2211,1,1.07e5,1.01e5,1.50e5,1.48e5,6845
GM130 (Golgi matrix protein 130 kD),1,87955,1.07e5,74080,79265,5815
Axn (Axin),1,36815,36800,40455,46510,3605
CG7054,1,1.51e5,1.49e5,2.37e5,2.53e5,12765
yin,1,53880,49000,61110,59845,4115
CG11788,1,45530,36640,31540,33070,4850
RpS14a (Ribosomal protein S14a),1,22825,17390,23075,23355,1125
yip2 (yippee interacting protein 2),1,1.33e5,1.52e5,94015,1.12e5,18955
Sec15 (Secretory 15),1,2.11e5,1.68e5,2.05e5,2.15e5,15815
CG30393,1,80975,60845,79295,61465,4755
CG18477 + CG31780,1,1.00e5,1.29e5,1.29e5,1.68e5,8960

7 entries from above, reformatted.
gene	dsRNA no.	induced reporter light, run 1, well a	induced reporter light, run 1, well b	control promoter light, run 1, well a	control promoter light, run 1, well b	uninduced reporter light, run 1, well a
CG32260	1	1.44e5	1.41e5	1.58e5	1.61e5	12425
RhoBTB (Rho-related BTB domain containing)	1	78775	82260	63950	85360	6785
cathD (cathepsin D)	1	2.20e5	2.59e5	3.12e5	2.70e5	22820
sano (serrano)	1	97535	95175	1.66e5	2.18e5	8720
CG6345	1	77030	77670	71955	64545	4035
Neu2 (Neuroectoderm-expressed 2)	1	1.10e5	1.07e5	83495	65125	6685
Gpdh3 (Glycerol-3-phosphate dehydrogenase 3)	1	67160	60795	86940	68030	8640
